Measured values published in paper PMC11109624, “Celastrol Ameliorates Neuronal Mitochondrial Dysfunction Induced by Intracerebral Hemorrhage via Targeting cAMP‐Activated Exchange Protein‐1” (Advanced Science, 2024).
Results are given in words; binding and its absence hold for the method and conditions named. Binding seen in cells or lysates may run through a third protein. Binding calls can cover weak binding; strength is not graded here.

Amino acid sequences for entries named in this document (tags omitted). A change or cut given only in a name is not applied to a line headed by its entry.
UniProt Q60932: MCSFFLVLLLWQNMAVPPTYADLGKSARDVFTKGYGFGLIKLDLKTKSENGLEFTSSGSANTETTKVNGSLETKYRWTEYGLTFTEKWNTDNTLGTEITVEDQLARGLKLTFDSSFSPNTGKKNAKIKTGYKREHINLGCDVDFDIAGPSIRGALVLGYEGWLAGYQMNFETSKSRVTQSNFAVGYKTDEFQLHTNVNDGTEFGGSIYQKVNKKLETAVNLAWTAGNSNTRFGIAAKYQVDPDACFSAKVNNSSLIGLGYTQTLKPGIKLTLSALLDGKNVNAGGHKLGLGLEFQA
UniProt Q8VCC8: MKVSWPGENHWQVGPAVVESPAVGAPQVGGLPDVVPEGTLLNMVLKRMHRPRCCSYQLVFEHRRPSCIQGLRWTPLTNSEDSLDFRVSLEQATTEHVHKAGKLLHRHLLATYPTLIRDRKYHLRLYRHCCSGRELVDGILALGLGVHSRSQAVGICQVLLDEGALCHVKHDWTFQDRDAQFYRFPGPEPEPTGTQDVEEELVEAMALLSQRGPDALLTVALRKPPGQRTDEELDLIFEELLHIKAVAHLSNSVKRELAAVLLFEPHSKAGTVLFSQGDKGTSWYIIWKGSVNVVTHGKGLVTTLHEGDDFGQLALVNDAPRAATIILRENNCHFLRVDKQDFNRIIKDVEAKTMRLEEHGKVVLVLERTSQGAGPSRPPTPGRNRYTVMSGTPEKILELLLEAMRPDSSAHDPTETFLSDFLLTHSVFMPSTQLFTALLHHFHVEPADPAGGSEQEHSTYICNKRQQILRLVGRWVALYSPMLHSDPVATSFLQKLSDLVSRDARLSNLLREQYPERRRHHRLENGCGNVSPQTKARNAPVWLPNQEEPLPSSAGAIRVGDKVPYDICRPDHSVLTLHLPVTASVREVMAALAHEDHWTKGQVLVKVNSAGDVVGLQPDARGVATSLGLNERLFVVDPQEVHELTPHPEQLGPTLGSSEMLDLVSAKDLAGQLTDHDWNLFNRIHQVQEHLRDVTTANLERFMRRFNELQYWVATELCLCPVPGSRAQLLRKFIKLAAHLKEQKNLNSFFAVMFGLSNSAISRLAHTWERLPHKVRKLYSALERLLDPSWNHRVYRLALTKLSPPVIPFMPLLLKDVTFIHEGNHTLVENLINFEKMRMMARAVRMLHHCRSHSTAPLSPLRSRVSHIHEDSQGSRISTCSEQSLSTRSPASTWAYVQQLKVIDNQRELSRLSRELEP

Target: voltage-dependent anion-selective channel protein 1 (VDAC1), endogenous in mouse cortex (mouse (endogenous in mouse cortex)) (UniProt Q60932)
Test: co-IP; cortex samples surrounding the hematoma of mice, sham and ICH 24 h groups; incubated overnight at 4 °C with IgG (negative control) or antibody (1 µg), protein A/G agarose beads 4 h at 4 °C, western blot; which protein was precipitated is not told

Substance: cAMP-activated exchange protein-1 (EPAC-1), endogenous in mouse cortex (from UniProt Q8VCC8 1-918)
- binding: binds
